Molecules are shown by their SMILES. Where a name gives a salt, the structure may show the parent alone. ± gives the standard deviation of the averaged measurements. The list shows a part of the results. Values are raw readings; no control value is given beside them.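 Ribosome-assembly readouts in HeLa cells were imaged via ENP1 staining, with or without export block, or inducible tagged ribosomal protein reporters. Machine learning classified per-cell signal location versus solvent (DMSO) controls. Hits surpassed the DMSO false-positive mean by five standard deviations and were visually confirmed; three biological replicates.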

The subject of this test is HeLa K (ENP1 immunofluorescence, no LMB). The experiment in a line: fraction of cells with nucleolar or nucleolar/nucleoplasmic ENP1 signal (MainHitrate); higher = more cells with nucleolar/nuclear readout signal (for ENP1 -LMB: less RNAPI inhibition; for +LMB ENP1 and RP reporters: stronger nuclear/nucleolar retention, i.e. ribosome biogenesis defect). The conditions noted are these: concentration: 1 µM; treatment time: 6 h; ENP1 -LMB; leptomycin B: none.
Consider `CN1Cc2c(N)cccc2C(c2ccccc2)C1` (centres undefined) [Nomifensine Maleate], for which the fraction was found to be 0.9953 ± 0.0082.

On to `COc1ccccc1OCC(O)COC(N)=O` (centres undefined) [Methocarbamol (Robaxin)], for which the fraction was 0.9986 ± 0.0025.

On to `CCCSc1ccc2[nH]c(NC(=O)OC)nc2c1` [Albendazole (Albenza)], for which the fraction stood at 0.9947 ± 0.0092.

In turn, `CCCCCCCCCCCCCCCC[N+](C)(C)C` [Cetrimonium Bromide] displayed a fraction of 0.99 ± 0.017.

`CCOc1nc2cccc(C(=O)O)c2n1Cc1ccc(-c2ccccc2-c2nnn[nH]2)cc1` [Candesartan (Atacand)] showed a fraction of 0.9977 ± 0.004.

As for `O=C(O)/C=C/c1ccc(Cn2ccnc2)cc1` [Ozagrel HCl], the fraction was 0.994 ± 0.011.

Consider `C=C(c1ccc(C(=O)O)cc1)c1cc2c(cc1C)C(C)(C)CCC2(C)C` [Bexarotene], for which the fraction stood at 0.9971 ± 0.005.

`Cc1c(Nc2ncccc2C(=O)O)cccc1C(F)(F)F` [Flunixin meglumin] registered a fraction of 0.9944 ± 0.0097.

The compound `Fc1ccc(C(c2ccc(F)cc2)N2CCN(C/C=C/c3ccccc3)CC2)cc1` [Flunarizine 2HCl] registered a fraction of 0.989 ± 0.019.

In turn, `O=C1CCc2ccc(OCCCCN3CCN(c4cccc(Cl)c4Cl)CC3)cc2N1` [Aripiprazole (Abilify)] showed a fraction of 0.995 ± 0.0086.

In the case of `CCN[C@H]1C[C@H](C)S(=O)(=O)c2sc(S(N)(=O)=O)cc21` [Dorzolamide HCL], the fraction worked out at 0.9989 ± 0.0018.

As for `C/C(O)=C(\C#N)C(=O)Nc1ccc(C(F)(F)F)cc1` [Teriflunomide], the fraction is 0.988 ± 0.021.

`C[N+](C)(C)CC(O)CC(=O)[O-]` (racemic) [DL-Carnitine hydrochloride] displayed a fraction of 0.986 ± 0.025.

On to `O=C(C1CCCCC1)N1CC(=O)N2CCc3ccccc3C2C1` (centres undefined) [Praziquantel (Biltricide)], for which the fraction was found to be 0.9976 ± 0.0041.

Consider `CC(C)(C)C(=O)OCOP(=O)(COCCn1cnc2c(N)ncnc21)OCOC(=O)C(C)(C)C` [Adefovir Dipivoxil (Preveon, Hepsera)], for which the fraction came to 0.9979 ± 0.0036.

On to `Cc1onc(-c2c(Cl)cccc2Cl)c1C(=O)N[C@@H]1C(=O)N2[C@@H]1SC(C)(C)[C@@H]2C(=O)O` [Dicloxacillin Sodium], for which the fraction was 0.986 ± 0.024.

Compound `CN(C/C=C/C#CC(C)(C)C)Cc1cccc2ccccc12` [Terbinafine (Lamisil, Terbinex)] had a fraction of 0.9987 ± 0.0023.

As for `CC(C)/N=c1\cc2n(-c3ccc(Cl)cc3)c3ccccc3nc-2cc1Nc1ccc(Cl)cc1` [Clofazimine], the fraction was 0.989 ± 0.018.

`Cc1noc(NS(=O)(=O)c2ccc(N)cc2)c1C` [Sulfisoxazole] had a fraction of 0.992 ± 0.013.

As to `CN1C2=CC(=O)/C(=N\NC(N)=O)C=C2CC1S(=O)(=O)O` (centres undefined) [Carbazochrome sodium sulfonate], the fraction was 0.9953 ± 0.0082.

The compound `CCCNC(C)C(=O)Nc1ccccc1C` (centres undefined) [Prilocaine] gave a fraction of 0.9988 ± 0.0021.

As to `CCN(CC)CCOc1ccc(C(=C(Cl)c2ccccc2)c2ccccc2)cc1` [Clomifene citrate (Serophene)], the fraction turned out to be 0.9959 ± 0.0071.

The compound `CN(C)[C@@H](CCOc1cccc2ccccc12)c1ccccc1` [Dapoxetine hydrochloride (Priligy)] showed a fraction of 0.992 ± 0.013.

Regarding `CC=CC1=C(C(=O)O)N2C(=O)[C@@H](NC(=O)[C@H](N)c3ccc(O)cc3)[C@H]2SC1` [Cefprozil hydrate (Cefzil)], the fraction came to 0.992 ± 0.014.

`CCN[C@H]1CN(CCCOC)S(=O)(=O)c2sc(S(N)(=O)=O)cc21` [Brinzolamide]: the fraction came out at 0.979 ± 0.037.

`NC[C@H]1CC[C@H](C(=O)O)CC1` [Tranexamic acid (Transamin)] showed a fraction of 0.991 ± 0.016.

`Clc1ccc(COC(Cn2ccnc2)c2ccc(Cl)cc2Cl)c(Cl)c1` (centres undefined) [Miconazole (Monistat)] returned a fraction of 0.984 ± 0.027.

`C#C[C@]1(O)CC[C@H]2[C@@H]3CCc4cc(OC)ccc4[C@H]3CC[C@@]21C` [Mestranol]: the fraction came out at 0.993 ± 0.013.

The compound `Cc1c(C(=O)NN2CCCCC2)nn(-c2ccc(Cl)cc2Cl)c1-c1ccc(Cl)cc1` returned a fraction of 0.974 ± 0.045.

`CN(Cc1cc(Br)cc(Br)c1N)C1CCCCC1` [Bromhexine HCl] came in with a fraction of 0.99 ± 0.018.

In the case of `Nc1ccc(C(=O)O)c(O)c1` [Aminosalicylate sodium], the fraction turned out to be 0.977 ± 0.039.

With `CC(=O)O[C@]1(C(C)=O)CC[C@H]2[C@@H]3C=C(C)C4=CC(=O)CC[C@]4(C)[C@H]3CC[C@@]21C` [Megestrol Acetate], the fraction is 0.9975 ± 0.0043.

For `CCCCOc1cc(C(=O)OCCN(CC)CC)ccc1N` [Oxybuprocaine HCl], the fraction amounted to 0.993 ± 0.011.

`CC(C[N+](C)(C)C)OC(N)=O` (centres undefined) [Bethanechol chloride] registered a fraction of 0.99 ± 0.017.

As for `Cc1cc(C2CCCCC2)n(O)c(=O)c1` [Ciclopirox (Penlac)], the fraction amounted to 0.994 ± 0.011.

For the compound `CC(C)c1nc(CN(C)C(=O)N[C@@H](CCN2CCOCC2)C(=O)N[C@H](CC[C@H](Cc2ccccc2)NC(=O)OCc2cncs2)Cc2ccccc2)cs1` [Cobicistat (GS-9350)], the fraction worked out at 0.974 ± 0.044.

On to `CC(NCCc1ccc(O)cc1)C(O)c1ccc(O)cc1` (centres undefined) [Ritodrine hydrochloride (Yutopar)], for which the fraction was 0.991 ± 0.015.

For the compound `CC(=O)OCC(=O)[C@@]12N=C(C)O[C@@H]1C[C@H]1[C@@H]3CCC4=CC(=O)C=C[C@]4(C)[C@H]3[C@@H](O)C[C@@]12C` [Deflazacort (Calcort)], the fraction worked out at 0.978 ± 0.038.

`CC1CCc2c(N3CCC(O)CC3)c(F)cc3c(=O)c(C(=O)O)cn1c23` (centres undefined) [Nadifloxacin]: the fraction turned out to be 0.991 ± 0.015.
